Results as given in PubChem BioAssay AID248 (DTP/NCI, 2004).
The list does not hold the whole screen: it gathers tests that were run many times, whatever their T/C, doses with no T/C, and many T/C values between a quarter and a half above the control. Other doses and runs of a compound stand elsewhere. T/C: endpoint of the treated group in % of that of the vehicle group. Some doses have a count of surviving animals in place of a T/C: the source files T/C as zero there, which appears to mark a toxic dose or a test without result, not a measured value. Some doses without a T/C left all or most animals alive at the check, yet need not have been tolerated: survival well below the control is almost never listed, so the zero probably covers shortened survival too. Survivors were counted at the toxicity check, usually on the fifth day, unless a day is given; later deaths do not show. Schedule codes are those of the source, taken here to give the interval after Q, in days (D) or hours (H), and the number of doses after X. Marks such as (2×) count equal records among those shown. Some doses were run more than once; the values are given in rising order. Where survival is the endpoint, this PubChem deposit counts one and a half times the control or more as active, and values a quarter to a half above the control carry no call in these data; other NCI protocols may use other cut-offs. Some T/C values are followed by the survivors on the day toxicity was checked, most often the fifth; where none is given, no animal had died by that day.

Test system: L1210 leukemia ip in BDF1 mice, survival T/C
Test: NCI In Vivo Anticancer Drug Screen. Data for tumor model L1210 Leukemia (intraperitoneal) in B6D2F1 (BDF1) mice
Conditions: T/C endpoint: mean survival time, higher T/C = longer survival
[1] = dose: 50.0 mg/kg/injection, schedule: Q04DX003 (ip), vehicle: saline with Tween-80
[2] = dose: 100.0 mg/kg/injection, schedule: Q04DX003 (ip), vehicle: saline with Tween-80
[3] = dose: 200.0 mg/kg/injection, schedule: Q04DX003 (ip), vehicle: saline with Tween-80
[4] = dose: 400.0 mg/kg/injection, schedule: Q04DX003 (ip), vehicle: saline with Tween-80
[5] = dose: 50.0 mg/kg/injection, schedule: Q04DX002 (ip), vehicle: saline with Tween-80
[6] = dose: 100.0 mg/kg/injection, schedule: Q04DX002 (ip), vehicle: saline with Tween-80
[7] = dose: 200.0 mg/kg/injection, schedule: Q01DX009 (ip), vehicle: saline with Tween-80
[8] = dose: 200.0 mg/kg/injection, schedule: Q04DX002 (ip), vehicle: saline with Tween-80
[9] = dose: 400.0 mg/kg/injection, schedule: Q01DX001 (ip), vehicle: saline
[10] = dose: 400.0 mg/kg/injection, schedule: Q01DX009 (ip), vehicle: Klucel (hydroxypropylcellulose) (HPC)
[11] = dose: 400.0 mg/kg/injection, schedule: Q01DX009 (ip), vehicle: saline with Tween-80
[12] = dose: 400.0 mg/kg/injection, schedule: Q04DX003 (ip), vehicle: saline
[13] = dose: 400.0 mg/kg/injection, schedule: Q04DX003 (ip), vehicle: Klucel (hydroxypropylcellulose) (HPC)
[14] = dose: 100.0 mg/kg/injection, schedule: Q04DX003 (ip), vehicle: Klucel (hydroxypropylcellulose) (HPC)
[15] = dose: 200.0 mg/kg/injection, schedule: Q04DX003 (ip), vehicle: Klucel (hydroxypropylcellulose) (HPC)

For CC1CN=C(c2ccc(NC(=O)NCCCNC(=O)Nc3ccc(C4=NCC(C)N4)cc3)cc2)N1 (centres undefined), the T/C (dose: 15.0 mg/kg/injection, schedule: Q01DX015 (ip), vehicle: methylcellulose (MC)) was 125 % of control, the survivor count (dose: 60.0 mg/kg/injection, schedule: Q01DX015 (ip), vehicle: methylcellulose (MC)) was 0 of 6 and the survivor count (dose: 120.0 mg/kg/injection, schedule: Q01DX015 (ip), vehicle: methylcellulose (MC)) was 0 of 6.

In the case of CCN(CC)c1ccc(N)cc1, the survivor count [1] is reported as 3 of 6, the survivor count [2] is reported as 0 of 6 and the survivor count [3] is reported as 0 of 6. For the same molecule, the survivor count [4] was 0 of 6.

In the case of Nc1ncnc2c1c1c(N)[nH]nc1n2C1OC(CO)C(O)C1O (centres undefined), the T/C (dose: 100.0 mg/kg/injection, schedule: Q01DX009 (ip), vehicle: saline) is reported as 149 % of control.

With CCCCCCCCCCCCCCCCCC[N+](C)(C)C the survivor count (dose: 8.0 mg/kg/injection, schedule: Q01DX015 (ip), vehicle: saline) was 3 of 6, the survivor count (dose: 12.5 mg/kg/injection, schedule: Q01DX009 (ip), vehicle: saline) was 2 of 6 and the survivor count (dose: 25.0 mg/kg/injection, schedule: Q04DX003 (ip), vehicle: saline) was 4 of 6. The survivor count (dose: 50.0 mg/kg/injection, schedule: Q04DX003 (ip), vehicle: saline) was 0 of 6.

CC(Oc1ccccc1)C(=O)NC(=S)Nc1ccc(Cl)cc1 (centres undefined) was tested, and the T/C (dose: 12.5 mg/kg/injection, schedule: Q04DX002 (ip), vehicle: saline with Tween-80) was 90, 91, 97, 99, 101, 103 % of control, the T/C (dose: 25.0 mg/kg/injection, schedule: Q04DX002 (ip), vehicle: saline with Tween-80) was 89, 91, 97 (2×), 101 % of control [5 of 6 alive] and the T/C [5] was 93, 100, 103, 111, 124 % of control (2×). The survivor count [5] was 3 of 3, the T/C [6] was 86, 90, 91, 93, 95, 101, 109 % of control and the survivor count [6] was 3 of 3. The T/C [7] was 88, 91, 97, 102 % of control, the T/C [8] was 90, 101, 108 % of control and the survivor count [8] was 3 of 3. For the same molecule, the survivor count (dose: 400.0 mg/kg/injection, schedule: Q01DX001 (ip), vehicle: saline with Tween-80) was 0 of 6 and the survivor count (dose: 400.0 mg/kg/injection, schedule: Q04DX002 (ip), vehicle: saline with Tween-80) was 0 of 3 and 2 of 6.

With CC(=O)OCC1OC(n2cnc3c(N)ncnc32)C(OC(C)=O)C1OC(C)=O (centres undefined) the survivor count (dose: 100.0 mg/kg/injection, schedule: Q01DX001 (ip), vehicle: saline) was 4 of 4 and the survivor count [9] was 1 of 6.

In the case of COC(=O)CNC(=O)C(CC(C)C)NC(=O)OCc1ccccc1 (centres undefined), the survivor count [9] is reported as 6 of 6.

In the case of Cc1noc(NC(=O)Nc2ccccc2C(F)(F)F)c1C, the survivor count [10] is reported as 3 of 3.

O=C1c2ccccc2C(=O)N1CBr was tested, and the survivor count (dose: 100.0 mg/kg/injection, schedule: Q01DX009 (ip), vehicle: saline with Tween-80) was 6 of 6, the survivor count [7] was 6 of 6 and the survivor count [11] was 5 of 6.

With CCC(C)N(CCCOC(=O)c1ccc(N)cc1)C(C)CC (centres undefined) the survivor count (dose: 100.0 mg/kg/injection, schedule: Q04DX003 (ip), vehicle: saline) was 3 of 6, the survivor count (dose: 200.0 mg/kg/injection, schedule: Q04DX003 (ip), vehicle: saline) was 0 of 6 and the survivor count [12] was 0 of 6.

COC1OC2COCOC2C(OS(=O)(=O)c2ccc(C)cc2)C1OS(=O)(=O)c1ccc(C)cc1 (centres undefined) was tested, and the survivor count [4] was 6 of 6.

For O=C(O)CCCCCCCCCCNC(=O)Nc1cccc(C(F)(F)F)c1, the T/C (dose: 400.0 mg/kg/injection, schedule: Q04DX003 (ip), vehicle: gum acacia) was 149 % of control.

With CC[n+]1ccc(-c2ccc(NC(=O)c3ccc(C(=O)Nc4ccc(-c5cc[n+](CC)cc5)cc4)cc3)cc2)cc1 the T/C (dose: 1.25 mg/kg/injection, schedule: Q01DX015 (ip), vehicle: carboxymethylcellulose (CMC)) was 131 % of control, the T/C (dose: 7.5 mg/kg/injection, schedule: Q01DX001 (ip), vehicle: carboxymethylcellulose (CMC)) was 134 and 138 % of control and the T/C (dose: 15.0 mg/kg/injection, schedule: Q01DX001 (ip), vehicle: carboxymethylcellulose (CMC)) was 128 and 138 % of control. The T/C (dose: 30.0 mg/kg/injection, schedule: Q01DX001 (ip), vehicle: carboxymethylcellulose (CMC)) was 130 % of control, the survivor count (dose: 45.0 mg/kg/injection, schedule: Q01DX015 (ip), vehicle: carboxymethylcellulose (CMC)) was 6 of 6 and the survivor count (dose: 75.0 mg/kg/injection, schedule: Q01DX015 (ip), vehicle: carboxymethylcellulose (CMC)) was 6 of 6. For the same molecule, the survivor count (dose: 112.0 mg/kg/injection, schedule: Q01DX015 (ip), vehicle: carboxymethylcellulose (CMC)) was 3 of 6.

CCOP1(=S)OCCO1 was tested, and the survivor count [13] was 2 of 6.

With c1ccc(NC(Nc2ccccn2)c2ccncc2)nc1 the T/C [4] was 125 % of control.

For CCC(O)C[As](=O)(O)c1ccccc1 (centres undefined), the survivor count (dose: 25.0 mg/kg/injection, schedule: Q04DX003 (ip), vehicle: saline with Tween-80) was 0 of 6, the survivor count [1] was 0 of 6 and the survivor count [2] was 0 of 6 (2×). For the same molecule, the survivor count [3] was 0 of 6 and the survivor count [4] was 0 of 6.

c1ccc(CN(CCNc2ccccc2)c2ccccc2)cc1 was tested, and the survivor count (dose: 200.0 mg/kg/injection, schedule: Q01DX009 (ip), vehicle: water) was 5 of 6.

CNP(Br)(c1ccccc1)(c1ccccc1)c1ccccc1 was tested, and the survivor count (dose: 20.0 mg/kg/injection, schedule: Q01DX001 (ip), vehicle: saline) was 3 of 6, the survivor count (dose: 40.0 mg/kg/injection, schedule: Q01DX001 (ip), vehicle: saline) was 0 of 6 and the survivor count (dose: 75.0 mg/kg/injection, schedule: Q01DX001 (ip), vehicle: acetone) was 0 of 6. For the same molecule, the survivor count (dose: 150.0 mg/kg/injection, schedule: Q01DX001 (ip), vehicle: acetone) was 0 of 6 and the survivor count (dose: 300.0 mg/kg/injection, schedule: Q01DX001 (ip), vehicle: acetone) was 0 of 6.

In the case of O=C(NCCCl)NC(C1CC1)C1CC1, the survivor count [11] is reported as 3 of 6.

O=C(O)C1(C(=O)O)C=CCCC1 was tested, and the survivor count (dose: 400.0 mg/kg/injection, schedule: Q01DX009 (ip), vehicle: saline + alcohol) was 2 of 6.

In the case of CCCCCCCCCCC[n+]1ccc(C#N)cc1, the survivor count (dose: 75.0 mg/kg/injection, schedule: Q01DX001 (ip), vehicle: saline) is reported as 0 of 6, the survivor count (dose: 150.0 mg/kg/injection, schedule: Q01DX001 (ip), vehicle: saline) is reported as 0 of 6 and the survivor count (dose: 300.0 mg/kg/injection, schedule: Q01DX001 (ip), vehicle: saline) is reported as 0 of 6.

With CC[CH2][Pb]([Cl])([CH2]CC)[CH2]CC the survivor count [14] was 2 of 6, the survivor count [15] was 1 of 6 and the survivor count [13] was 3 of 6.

In the case of CSc1ccc(OC(=O)Nc2cc(Cl)ccc2C)cc1, the survivor count [11] is reported as 0 of 3 and 3 of 6 and the survivor count [4] is reported as 0 of 6.

With CC1(C)N=C(N)N=C(N)N1c1cc(Cl)c(Cl)cc1Cl the survivor count (dose: 25.0 mg/kg/injection, schedule: Q01DX009 (ip), vehicle: Klucel (hydroxypropylcellulose) (HPC)) was 6 of 6, the survivor count (dose: 50.0 mg/kg/injection, schedule: Q01DX009 (ip), vehicle: Klucel (hydroxypropylcellulose) (HPC)) was 1 of 6 and the survivor count (dose: 100.0 mg/kg/injection, schedule: Q01DX009 (ip), vehicle: Klucel (hydroxypropylcellulose) (HPC)) was 0 of 6. For the same molecule, the survivor count [14] was 4 of 6, the survivor count [15] was 1 of 6 and the survivor count [13] was 0 of 6.

With CCc1ccc(/C(C#N)=C/c2ccc(N(C)C)cc2)cc1 the survivor count (dose: 200.0 mg/kg/injection, schedule: Q01DX009 (ip), vehicle: Klucel (hydroxypropylcellulose) (HPC)) was 6 of 6 and the survivor count [10] was 6 of 6.

With O=C(O)c1c(Cl)c([N+](=O)[O-])cc([N+](=O)[O-])c1Cl the survivor count [12] was 2 of 6.
